Reference: the supplement of paper PMC4604168 (melanoma cell lines)
Some of the results follow. Repeats are few or missing, and single values can be far off.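 Cells were imaged in 1,536-well plates, and nuclei stained with an antibody against cleaved PARP were counted against all DNA-stained nuclei to give the apoptosis fraction. Screening doses were chosen to leave most cells alive, and resting and induced cleaved-PARP levels differ strongly between cell lines.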

These molecules were tested on LOXIMVI (assay: cleaved PARP positive nuclei fraction relative to DMSO control; melanoma cells; higher = more apoptosis). Details: library dose: low library concentration; 72 h.
For `CC(C)C[C@H](NC(=O)[C@H](Cc1ccccc1)NC(=O)c1cnccn1)B(O)O` [Bortezomib] + O=C(O)c1ccc(-c2c[nH]c3ncc(-c4ccccc4)cc23)cc1C1CCCC1 [GSK650394] (first compound 0.001 µM, partner dose 0.16 µM), the “cleaved PARP positive nuclei fraction” value was 101%. In the case of `C[C@@H](Oc1cc(-c2cnn(C3CCNCC3)c2)cnc1N)c1c(Cl)ccc(F)c1Cl` [Crizotinib] + C[C@@H]1CCN(C(=O)CC#N)C[C@@H]1N(C)c1ncnc2[nH]ccc12 [CP690550] (first compound 0.2 µM, partner dose 1 µM), the “cleaved PARP positive nuclei fraction” value was 24.1%. For `CC(C)C[C@H](NC(=O)[C@H](Cc1ccccc1)NC(=O)c1cnccn1)B(O)O` [Bortezomib] + Cc1cc(N2CCOCC2)cc2[nH]c(-c3c(NC[C@@H](O)c4cccc(Cl)c4)cc[nH]c3=O)nc12 [BMS536924] (first compound 0.001 µM, partner dose 0.2 µM), the “cleaved PARP positive nuclei fraction” value was 103%. In the case of `Nc1ccn([C@@H]2O[C@H](CO)[C@@H](O)C2(F)F)c(=O)n1` [gemcitabine] + CC(C)(C)c1cnc(CSc2cnc(NC(=O)C3CCNCC3)s2)o1 [SNS-032] (first compound 0.0004 µM, partner dose 0.01 µM), the “cleaved PARP positive nuclei fraction” value was 29.6%. With `CCCS(=O)(=O)Nc1ccc(F)c(C(=O)c2c[nH]c3ncc(Cl)cc23)c1F` + C=CCn1c(=O)c2cnc(Nc3ccc(N4CCN(C)CC4)cc3)nc2n1-c1cccc(C(C)(C)O)n1 [MK1775] (first compound 0.08 µM, partner dose 0.02 µM) the “cleaved PARP positive nuclei fraction” value was 32%. `Nc1ccn([C@@H]2O[C@H](CO)[C@@H](O)C2(F)F)c(=O)n1` [gemcitabine] + CC1(C)NC(=O)N(c2ccc([N+](=O)[O-])c(C(F)(F)F)c2)C1=O [nilutamide] (first compound 0.0004 µM, partner dose 1 µM) was tested, and the “cleaved PARP positive nuclei fraction” value was 116%. `CC(C)C[C@H](NC(=O)[C@H](Cc1ccccc1)NC(=O)c1cnccn1)B(O)O` [Bortezomib] + Cc1ccc(NC(=O)c2cccc(N(C)C)c2)cc1NC(=O)c1ccc(O)cc1 [ZM336372] (first compound 0.001 µM, partner dose 2 µM) was tested, and the “cleaved PARP positive nuclei fraction” value was 41.9%. `CCCS(=O)(=O)Nc1ccc(F)c(C(=O)c2c[nH]c3ncc(Cl)cc23)c1F` + CN(NC(=O)CC(=O)NN(C)C(=S)c1ccccc1)C(=S)c1ccccc1 [STA4783] (first compound 0.08 µM, partner dose 0.006 µM) was tested, and the “cleaved PARP positive nuclei fraction” value was 47.7%. With `O=C(O)[C@@H]1[O][Sb](=[O])([O][Sb]2(=[O])[O][C@H]([C@H](O)CO)[C@H](O)[C@H](C(=O)O)[O]2)[O][C@H]([C@H](O)CO)[C@@H]1O` (some centres undefined) [stibogluconate] + C[C@@H]1CCN(C(=O)CC#N)C[C@@H]1N(C)c1ncnc2[nH]ccc12 [CP690550] (first compound 2 µM, partner dose 1 µM) the “cleaved PARP positive nuclei fraction” value was 33.8%. With `C=C(c1ccc(C(=O)O)cc1)c1cc2c(cc1C)C(C)(C)CCC2(C)C` [Bexarotene] + Cc1ccc(NC(=O)c2cccc(N(C)C)c2)cc1NC(=O)c1ccc(O)cc1 [ZM336372] (first compound 2 µM, partner dose 2 µM) the “cleaved PARP positive nuclei fraction” value was 225%. `Cc1cc(Nc2cc(N3CCN(C)CC3)nc(/C=C/c3ccccc3)n2)n[nH]1` + CO[C@@H]1[C@H](N(C)C(=O)c2ccccc2)C[C@H]2O[C@]1(C)n1c3ccccc3c3c4c(c5c6ccccc6n2c5c31)C(=O)NC4 [Midostaurin] (first compound 0.04 µM, partner dose 0.08 µM) was tested, and the “cleaved PARP positive nuclei fraction” value was 295%.

Each molecule was assayed on MEL-HO in the same assay as above. Details: library dose: low library concentration; 72 h.
For `Nc1ncn([C@H]2C[C@H](O)[C@@H](CO)O2)c(=O)n1` [decitabine] + Cc1cc(N2CCOCC2)cc2[nH]c(-c3c(NC[C@@H](O)c4cccc(Cl)c4)cc[nH]c3=O)nc12 [BMS536924] (first compound 0.1 µM, partner dose 0.2 µM), the “cleaved PARP positive nuclei fraction” value was 69.2%. In the case of `Cn1c(=O)n(-c2ccc(C(C)(C)C#N)cc2)c2c3cc(-c4cnc5ccccc5c4)ccc3ncc21` + NCC(=O)Nc1ccc(-n2nc(C(F)(F)F)cc2-c2ccc3c(ccc4ccccc43)c2)cc1 [OSU03012] (first compound 0.004 µM, partner dose 1 µM), the “cleaved PARP positive nuclei fraction” value was 44.5%. With `CS(=O)(=O)CCNCc1ccc(-c2ccc3ncnc(Nc4ccc(OCc5cccc(F)c5)c(Cl)c4)c3c2)o1` [lapatinib] + O=C(Nc1cccc(Cl)c1)Nc1ncc(CCNc2ncnc3ccsc23)s1 [SNS314] (first compound 0.8 µM, partner dose 0.0008 µM) the “cleaved PARP positive nuclei fraction” value was 72.6%. For `CN1CCN(c2ccc3nc(-c4c(N)c5c(F)cccc5[nH]c4=O)[nH]c3c2)CC1` [Dovitinib] + CN(C)S(=O)(=O)c1ccc2c(c1)/C(=C/c1cc3c([nH]1)CCCC3)C(=O)N2 [SU6656] (first compound 0.1 µM, partner dose 0.4 µM), the “cleaved PARP positive nuclei fraction” value was 54.1%. With `C[C@@H](Oc1cc(-c2cnn(C3CCNCC3)c2)cnc1N)c1c(Cl)ccc(F)c1Cl` [Crizotinib] + Cn1cncc1[C@@](N)(c1ccc(Cl)cc1)c1ccc2c(c1)c(-c1cccc(Cl)c1)cc(=O)n2C [tipifarnib] (first compound 0.2 µM, partner dose 0.01 µM) the “cleaved PARP positive nuclei fraction” value was 96.2%. With `CO[C@H]1C[C@@H]2CC[C@@H](C)[C@@](O)(O2)C(=O)C(=O)N2CCCC[C@H]2C(=O)O[C@H]([C@H](C)C[C@@H]2CC[C@@H](OCCO)[C@H](OC)C2)CC(=O)[C@H](C)/C=C(\C)[C@@H](O)[C@@H](OC)C(=O)[C@H](C)C[C@H](C)/C=C/C=C/C=C/1C` [everolimus] + O=C(Nc1cccc(Cl)c1)Nc1ncc(CCNc2ncnc3ccsc23)s1 [SNS314] (first compound 0.02 µM, partner dose 0.0008 µM) the “cleaved PARP positive nuclei fraction” value was 106%. For `O=C(O)c1ccc2c(c1)nc(Nc1cccc(Cl)c1)c1ccncc12` + NC(=O)Nc1cc(-c2cccc(F)c2)sc1C(=O)N[C@H]1CCCNC1 [AZD7762] (first compound 0.4 µM, partner dose 0.02 µM), the “cleaved PARP positive nuclei fraction” value was 122%. For `Cn1c(=O)n(-c2ccc(C(C)(C)C#N)cc2)c2c3cc(-c4cnc5ccccc5c4)ccc3ncc21` + O=C(O)c1ccc(-c2c[nH]c3ncc(-c4ccccc4)cc23)cc1C1CCCC1 [GSK650394] (first compound 0.004 µM, partner dose 0.16 µM), the “cleaved PARP positive nuclei fraction” value was 146%. For `O=C(O)c1ccc2c(c1)nc(Nc1cccc(Cl)c1)c1ccncc12` + O=C(O)c1ccc(-c2c[nH]c3ncc(-c4ccccc4)cc23)cc1C1CCCC1 [GSK650394] (first compound 0.4 µM, partner dose 0.16 µM), the “cleaved PARP positive nuclei fraction” value was 132%. For `CC(C)C[C@H](NC(=O)[C@H](Cc1ccccc1)NC(=O)c1cnccn1)B(O)O` [Bortezomib] + O=C(CCCCCCC(=O)Nc1ccccc1)NO [vorinostat] (first compound 0.001 µM, partner dose 0.08 µM), the “cleaved PARP positive nuclei fraction” value was 110%. With `O=C(O)c1ccc2c(c1)nc(Nc1cccc(Cl)c1)c1ccncc12` + O=C(Nc1cccc(Cl)c1)Nc1ncc(CCNc2ncnc3ccsc23)s1 [SNS314] (first compound 0.4 µM, partner dose 0.0008 µM) the “cleaved PARP positive nuclei fraction” value was 72.2%. For `Nc1nc(F)nc2c1ncn2[C@@H]1O[C@H](CO)[C@@H](O)[C@@H]1O` [fludarabine] + C=CCn1c(=O)c2cnc(Nc3ccc(N4CCN(C)CC4)cc3)nc2n1-c1cccc(C(C)(C)O)n1 [MK1775] (first compound 0.2 µM, partner dose 0.02 µM), the “cleaved PARP positive nuclei fraction” value was 60.4%. `Nc1ccn([C@@H]2O[C@H](CO)[C@@H](O)C2(F)F)c(=O)n1` [gemcitabine] + COc1cc(Nc2ncc(F)c(Nc3ccc4c(n3)NC(=O)C(C)(C)O4)n2)cc(OC)c1OC [Tamatinib] (first compound 0.0004 µM, partner dose 0.4 µM) was tested, and the “cleaved PARP positive nuclei fraction” value was 84.5%. `Cn1c(=O)n(-c2ccc(C(C)(C)C#N)cc2)c2c3cc(-c4cnc5ccccc5c4)ccc3ncc21` + COc1cc2c(Oc3ccc4[nH]c(C)cc4c3F)ncnc2cc1OCCCN1CCCC1 [cediranib] (first compound 0.004 µM, partner dose 0.4 µM) was tested, and the “cleaved PARP positive nuclei fraction” value was 144%. `Cc1cc(Nc2cc(N3CCN(C)CC3)nc(/C=C/c3ccccc3)n2)n[nH]1` + NC(=O)Nc1cc(-c2cccc(F)c2)sc1C(=O)N[C@H]1CCCNC1 [AZD7762] (first compound 0.04 µM, partner dose 0.02 µM) was tested, and the “cleaved PARP positive nuclei fraction” value was 125%. For `Nc1nc(F)nc2c1ncn2[C@@H]1O[C@H](CO)[C@@H](O)[C@@H]1O` [fludarabine] + O=C(Nc1cccc(Cl)c1)Nc1ncc(CCNc2ncnc3ccsc23)s1 [SNS314] (first compound 0.2 µM, partner dose 0.0008 µM), the “cleaved PARP positive nuclei fraction” value was 65.9%. `CS(=O)(=O)CCNCc1ccc(-c2ccc3ncnc(Nc4ccc(OCc5cccc(F)c5)c(Cl)c4)c3c2)o1` [lapatinib] + CN(NC(=O)CC(=O)NN(C)C(=S)c1ccccc1)C(=S)c1ccccc1 [STA4783] (first compound 0.8 µM, partner dose 0.006 µM) was tested, and the “cleaved PARP positive nuclei fraction” value was 146%. In the case of `CC(C)C[C@H](NC(=O)[C@H](Cc1ccccc1)NC(=O)c1cnccn1)B(O)O` [Bortezomib] + CO[C@@H]1[C@H](N(C)C(=O)c2ccccc2)C[C@H]2O[C@]1(C)n1c3ccccc3c3c4c(c5c6ccccc6n2c5c31)C(=O)NC4 [Midostaurin] (first compound 0.001 µM, partner dose 0.08 µM), the “cleaved PARP positive nuclei fraction” value was 79.7%.
